# Reference: the supplement of paper PMC12595434, “Development of retinoid nuclear receptor pathway antagonists through targeting aldehyde dehydrogenase 1A3” (iScience, 2025)
# Protein sequences, listed by entry. Tags and fused reporters are not part of them. Lines headed by an entry give the natural chain unless they say otherwise; changes in a name come on top.
# UniProt P62258: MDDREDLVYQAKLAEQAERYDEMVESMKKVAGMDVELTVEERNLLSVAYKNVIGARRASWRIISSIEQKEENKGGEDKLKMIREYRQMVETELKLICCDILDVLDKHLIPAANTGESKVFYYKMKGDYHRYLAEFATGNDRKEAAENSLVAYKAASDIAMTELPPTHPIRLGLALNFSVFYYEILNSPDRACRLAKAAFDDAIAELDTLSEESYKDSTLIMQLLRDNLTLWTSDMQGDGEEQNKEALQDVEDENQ
# UniProt P55809: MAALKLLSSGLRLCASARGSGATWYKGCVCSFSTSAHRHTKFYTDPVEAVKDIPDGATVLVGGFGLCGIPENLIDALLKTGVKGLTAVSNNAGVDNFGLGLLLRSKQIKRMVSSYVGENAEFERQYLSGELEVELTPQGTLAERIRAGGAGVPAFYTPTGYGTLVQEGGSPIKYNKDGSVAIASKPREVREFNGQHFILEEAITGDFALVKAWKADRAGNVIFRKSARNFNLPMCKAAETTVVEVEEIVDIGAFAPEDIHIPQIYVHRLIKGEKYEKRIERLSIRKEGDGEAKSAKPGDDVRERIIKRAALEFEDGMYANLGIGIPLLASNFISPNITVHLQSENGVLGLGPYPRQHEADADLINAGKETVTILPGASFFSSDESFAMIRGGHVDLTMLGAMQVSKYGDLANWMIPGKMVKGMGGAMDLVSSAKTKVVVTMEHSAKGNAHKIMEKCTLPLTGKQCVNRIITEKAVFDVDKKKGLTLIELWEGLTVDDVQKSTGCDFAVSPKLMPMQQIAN
# UniProt P61769, whole entry: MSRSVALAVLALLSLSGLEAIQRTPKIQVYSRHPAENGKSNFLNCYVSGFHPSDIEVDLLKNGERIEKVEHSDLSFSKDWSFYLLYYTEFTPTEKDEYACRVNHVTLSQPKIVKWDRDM
# UniProt P61962: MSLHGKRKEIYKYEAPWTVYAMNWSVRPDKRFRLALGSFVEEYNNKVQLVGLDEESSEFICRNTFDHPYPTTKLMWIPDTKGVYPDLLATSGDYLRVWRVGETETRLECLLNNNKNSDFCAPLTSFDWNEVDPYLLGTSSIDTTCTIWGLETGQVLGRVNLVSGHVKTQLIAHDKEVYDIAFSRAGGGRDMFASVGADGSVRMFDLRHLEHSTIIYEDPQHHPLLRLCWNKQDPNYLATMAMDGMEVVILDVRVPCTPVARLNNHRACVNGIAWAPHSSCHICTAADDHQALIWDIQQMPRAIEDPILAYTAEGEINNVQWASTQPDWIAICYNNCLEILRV
# UniProt P55795: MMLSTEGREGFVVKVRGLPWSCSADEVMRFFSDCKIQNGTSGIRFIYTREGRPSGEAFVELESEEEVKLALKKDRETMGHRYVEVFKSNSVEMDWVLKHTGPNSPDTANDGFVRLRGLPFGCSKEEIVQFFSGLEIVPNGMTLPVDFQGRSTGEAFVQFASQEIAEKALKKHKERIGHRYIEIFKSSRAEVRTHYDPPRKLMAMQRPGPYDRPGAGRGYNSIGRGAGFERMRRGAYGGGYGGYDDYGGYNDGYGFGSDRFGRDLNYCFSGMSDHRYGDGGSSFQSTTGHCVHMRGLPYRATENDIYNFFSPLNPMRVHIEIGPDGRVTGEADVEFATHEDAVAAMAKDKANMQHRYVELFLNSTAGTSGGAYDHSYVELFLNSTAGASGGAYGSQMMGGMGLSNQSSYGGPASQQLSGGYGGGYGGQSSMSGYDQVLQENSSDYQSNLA
# UniProt P62995: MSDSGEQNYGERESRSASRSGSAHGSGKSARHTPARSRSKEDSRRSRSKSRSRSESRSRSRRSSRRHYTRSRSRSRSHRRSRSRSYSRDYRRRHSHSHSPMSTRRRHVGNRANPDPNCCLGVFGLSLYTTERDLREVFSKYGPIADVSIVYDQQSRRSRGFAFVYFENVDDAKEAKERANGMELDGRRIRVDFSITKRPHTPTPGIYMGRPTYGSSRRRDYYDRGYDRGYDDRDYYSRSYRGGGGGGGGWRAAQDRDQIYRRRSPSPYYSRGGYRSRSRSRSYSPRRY
# UniProt P52948: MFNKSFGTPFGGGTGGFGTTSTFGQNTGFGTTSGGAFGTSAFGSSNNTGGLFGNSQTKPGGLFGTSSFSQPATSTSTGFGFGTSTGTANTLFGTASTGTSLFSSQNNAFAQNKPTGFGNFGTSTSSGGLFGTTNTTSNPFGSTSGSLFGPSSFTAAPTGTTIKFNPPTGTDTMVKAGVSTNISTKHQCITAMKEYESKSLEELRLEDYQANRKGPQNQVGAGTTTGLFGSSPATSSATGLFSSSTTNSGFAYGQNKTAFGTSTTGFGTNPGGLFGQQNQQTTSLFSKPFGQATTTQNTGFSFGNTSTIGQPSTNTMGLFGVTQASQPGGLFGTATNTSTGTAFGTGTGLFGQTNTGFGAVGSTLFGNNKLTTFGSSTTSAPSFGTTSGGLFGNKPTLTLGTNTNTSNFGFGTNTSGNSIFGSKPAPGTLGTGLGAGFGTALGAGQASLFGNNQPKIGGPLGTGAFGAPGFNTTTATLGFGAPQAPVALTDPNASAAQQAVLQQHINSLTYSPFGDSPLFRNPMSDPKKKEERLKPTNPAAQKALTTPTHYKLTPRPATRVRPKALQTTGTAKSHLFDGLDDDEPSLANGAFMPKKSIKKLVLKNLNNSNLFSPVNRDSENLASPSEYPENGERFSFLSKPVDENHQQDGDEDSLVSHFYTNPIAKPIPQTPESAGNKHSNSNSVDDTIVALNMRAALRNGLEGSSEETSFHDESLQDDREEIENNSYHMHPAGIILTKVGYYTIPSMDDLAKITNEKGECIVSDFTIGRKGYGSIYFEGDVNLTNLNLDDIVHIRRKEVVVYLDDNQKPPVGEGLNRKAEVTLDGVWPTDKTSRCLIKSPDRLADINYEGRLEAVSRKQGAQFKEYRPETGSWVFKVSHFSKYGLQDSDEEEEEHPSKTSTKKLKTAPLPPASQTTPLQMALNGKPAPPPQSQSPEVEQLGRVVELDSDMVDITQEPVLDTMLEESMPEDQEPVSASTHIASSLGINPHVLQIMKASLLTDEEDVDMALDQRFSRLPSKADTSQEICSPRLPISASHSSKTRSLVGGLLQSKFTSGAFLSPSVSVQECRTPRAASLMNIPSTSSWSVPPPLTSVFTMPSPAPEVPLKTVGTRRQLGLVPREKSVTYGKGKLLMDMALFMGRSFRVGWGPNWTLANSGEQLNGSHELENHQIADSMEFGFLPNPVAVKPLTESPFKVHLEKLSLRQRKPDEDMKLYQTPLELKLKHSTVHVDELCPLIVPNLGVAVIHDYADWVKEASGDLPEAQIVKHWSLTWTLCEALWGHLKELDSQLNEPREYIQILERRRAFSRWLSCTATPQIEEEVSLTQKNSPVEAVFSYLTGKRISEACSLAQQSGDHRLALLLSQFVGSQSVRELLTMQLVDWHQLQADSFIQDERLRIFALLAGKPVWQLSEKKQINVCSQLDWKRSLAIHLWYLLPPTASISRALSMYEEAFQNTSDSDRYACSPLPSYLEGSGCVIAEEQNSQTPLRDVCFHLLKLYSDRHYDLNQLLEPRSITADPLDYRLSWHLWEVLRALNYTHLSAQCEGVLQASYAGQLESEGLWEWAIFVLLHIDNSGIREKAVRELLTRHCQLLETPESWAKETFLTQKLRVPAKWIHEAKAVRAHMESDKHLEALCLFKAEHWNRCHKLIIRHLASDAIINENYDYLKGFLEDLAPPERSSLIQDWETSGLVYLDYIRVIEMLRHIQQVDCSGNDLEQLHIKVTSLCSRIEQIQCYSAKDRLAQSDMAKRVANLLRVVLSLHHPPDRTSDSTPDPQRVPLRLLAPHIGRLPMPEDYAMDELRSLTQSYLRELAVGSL
# UniProt P61966: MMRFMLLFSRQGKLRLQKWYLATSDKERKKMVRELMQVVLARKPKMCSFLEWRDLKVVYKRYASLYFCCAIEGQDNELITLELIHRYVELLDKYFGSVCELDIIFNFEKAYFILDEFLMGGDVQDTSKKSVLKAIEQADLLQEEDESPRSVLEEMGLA
# UniProt P63208, whole entry: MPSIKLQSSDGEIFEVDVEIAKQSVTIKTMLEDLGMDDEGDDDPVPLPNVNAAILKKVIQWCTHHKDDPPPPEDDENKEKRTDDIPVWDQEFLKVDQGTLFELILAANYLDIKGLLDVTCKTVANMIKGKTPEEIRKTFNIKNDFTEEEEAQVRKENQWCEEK
# UniProt P54284, whole entry: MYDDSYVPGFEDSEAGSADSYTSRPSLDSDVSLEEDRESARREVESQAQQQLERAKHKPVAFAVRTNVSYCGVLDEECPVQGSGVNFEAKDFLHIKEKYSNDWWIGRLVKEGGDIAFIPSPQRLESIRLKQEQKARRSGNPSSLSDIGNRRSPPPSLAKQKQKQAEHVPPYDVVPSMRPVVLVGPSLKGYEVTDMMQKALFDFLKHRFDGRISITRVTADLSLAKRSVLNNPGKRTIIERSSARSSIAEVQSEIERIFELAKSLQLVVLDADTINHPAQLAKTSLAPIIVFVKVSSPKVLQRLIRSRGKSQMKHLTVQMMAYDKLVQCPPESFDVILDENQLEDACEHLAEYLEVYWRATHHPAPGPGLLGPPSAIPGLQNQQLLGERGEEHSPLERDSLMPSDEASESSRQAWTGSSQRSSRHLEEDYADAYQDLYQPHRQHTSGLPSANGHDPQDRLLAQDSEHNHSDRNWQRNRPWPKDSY
# UniProt P53990, whole entry: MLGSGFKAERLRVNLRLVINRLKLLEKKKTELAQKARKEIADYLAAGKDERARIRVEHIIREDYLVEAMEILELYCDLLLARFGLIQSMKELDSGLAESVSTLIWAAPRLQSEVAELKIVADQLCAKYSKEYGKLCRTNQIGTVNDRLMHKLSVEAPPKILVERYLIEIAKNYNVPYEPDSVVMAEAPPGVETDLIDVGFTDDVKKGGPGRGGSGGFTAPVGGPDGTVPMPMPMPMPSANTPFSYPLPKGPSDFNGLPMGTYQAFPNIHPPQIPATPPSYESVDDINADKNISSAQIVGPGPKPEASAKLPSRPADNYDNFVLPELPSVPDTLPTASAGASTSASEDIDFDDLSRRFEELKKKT
# UniProt P61586, whole entry: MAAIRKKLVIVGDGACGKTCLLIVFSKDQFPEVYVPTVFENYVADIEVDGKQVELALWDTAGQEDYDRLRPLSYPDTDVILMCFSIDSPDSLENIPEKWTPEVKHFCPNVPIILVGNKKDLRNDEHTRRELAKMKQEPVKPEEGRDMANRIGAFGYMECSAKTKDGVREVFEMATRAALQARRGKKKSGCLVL
# UniProt P63104: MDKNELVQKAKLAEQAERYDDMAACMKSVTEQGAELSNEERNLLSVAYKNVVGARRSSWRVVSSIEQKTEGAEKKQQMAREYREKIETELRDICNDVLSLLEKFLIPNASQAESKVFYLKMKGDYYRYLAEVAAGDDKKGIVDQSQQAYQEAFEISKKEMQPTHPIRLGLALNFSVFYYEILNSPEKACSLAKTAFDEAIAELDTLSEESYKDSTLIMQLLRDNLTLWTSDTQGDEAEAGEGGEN
# UniProt P55058, whole entry: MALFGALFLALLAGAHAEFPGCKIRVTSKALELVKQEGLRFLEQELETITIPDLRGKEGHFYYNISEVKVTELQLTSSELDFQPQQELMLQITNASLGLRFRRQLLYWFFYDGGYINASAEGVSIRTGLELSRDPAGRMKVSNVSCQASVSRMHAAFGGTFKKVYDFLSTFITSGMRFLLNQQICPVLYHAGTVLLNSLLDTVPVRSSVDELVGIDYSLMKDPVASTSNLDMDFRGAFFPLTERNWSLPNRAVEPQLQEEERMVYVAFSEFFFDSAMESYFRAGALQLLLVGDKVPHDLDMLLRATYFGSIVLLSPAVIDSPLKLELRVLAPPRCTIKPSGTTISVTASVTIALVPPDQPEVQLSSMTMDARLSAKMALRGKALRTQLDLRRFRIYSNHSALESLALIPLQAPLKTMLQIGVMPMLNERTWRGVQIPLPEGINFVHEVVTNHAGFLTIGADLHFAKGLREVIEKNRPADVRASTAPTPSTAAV
# UniProt P54619: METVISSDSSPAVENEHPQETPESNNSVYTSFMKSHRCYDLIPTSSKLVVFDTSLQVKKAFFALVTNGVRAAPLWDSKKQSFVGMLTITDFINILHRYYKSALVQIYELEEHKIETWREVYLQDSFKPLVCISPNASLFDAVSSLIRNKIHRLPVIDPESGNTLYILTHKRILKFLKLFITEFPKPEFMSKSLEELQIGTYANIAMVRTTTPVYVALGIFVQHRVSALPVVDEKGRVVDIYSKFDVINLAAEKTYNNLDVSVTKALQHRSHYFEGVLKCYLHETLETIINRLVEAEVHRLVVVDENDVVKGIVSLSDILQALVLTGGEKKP
# UniProt P51948: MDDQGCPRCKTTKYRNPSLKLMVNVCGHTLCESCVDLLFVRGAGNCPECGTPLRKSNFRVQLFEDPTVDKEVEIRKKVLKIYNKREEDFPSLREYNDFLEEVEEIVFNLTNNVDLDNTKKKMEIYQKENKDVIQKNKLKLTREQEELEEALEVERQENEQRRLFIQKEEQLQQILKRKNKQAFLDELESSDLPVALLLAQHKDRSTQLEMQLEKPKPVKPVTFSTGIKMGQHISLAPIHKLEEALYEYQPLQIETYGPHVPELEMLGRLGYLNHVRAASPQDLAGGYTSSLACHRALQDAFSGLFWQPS
# The other results are listed elsewhere or left out. This is a noisy data set.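 Tm was set to 64 °C where no melting was found, and many curves are irregular.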
# Compound: CCc1cnccc1C(=O)Nc1cc2c(cc1F)NC(=O)CC2
# Experiment: melting temperature shift (DMSO Tm minus MBE1-treated Tm) in cellular thermal proteome profiling; higher = less thermal stabilization by MBE1 (negative = stabilized by MBE1)
# Conditions: A375; MBE1 concentration: 100 nM
row,Target,melting temperature shift [°C]
1,THOP1 (UniProt P52888),-0.828
2,YWHAE (UniProt P62258),-0.537
3,OXCT1 (UniProt P55809),0.0268
4,B2M (UniProt P61769),-5.39
5,DCAF7 (UniProt P61962),0.867
6,PLK1 (UniProt P53350),0.147
7,STAT2 (UniProt P52630),0.156
8,CAPZA1 (UniProt P52907),-1.06
9,AGFG1 (UniProt P52594),-0.221
10,HNRNPH2 (UniProt P55795),0.378
11,TRA2B (UniProt P62995),-1.5
12,VAV2 (UniProt P52735),-0.607
13,NUP98 (UniProt P52948),0.928
14,UniProt P52435,-0.0333
15,AP1S1 (UniProt P61966),0.837
16,SKP1 (UniProt P63208),-1.93
17,UBA52 (UniProt P62987),-2.57
18,COPS2 (UniProt P61201),0.355
19,UniProt P54284,-0.322

row,Target,melting temperature shift [°C]
1,NAP1L1 (UniProt P55209),0.415
2,IST1 (UniProt P53990),0.391
3,RHOA (UniProt P61586),-1.58
4,RAC1 (UniProt P63000),0.122
5,YWHAZ (UniProt P63104),-1.32
6,UniProt P61018,-0.235
7,MYL6 (UniProt P60660),-0.415
8,UniProt P62304,0.57
9,UniProt P55058,-1.76
10,PRKAG1 (UniProt P54619),0.208
11,ATN1 (UniProt P54259),-8.17
12,MNAT1 (UniProt P51948),-0.933
13,RPS20 (UniProt P60866),-0.861
14,RPS23 (UniProt P62266),-0.293
15,PPP3R1 (UniProt P63098),-0.979
16,SMS (UniProt P52788),-0.855
17,SMTN (UniProt P53814),-0.9
18,SUB1 (UniProt P53999),-0.379

# Same assay, conditions: A375; MBE1 concentration: 1 uM
row,Target,melting temperature shift [°C]
1,THOP1 (UniProt P52888),-0.952
2,YWHAE (UniProt P62258),-0.568
3,OXCT1 (UniProt P55809),0.0469
4,B2M (UniProt P61769),-6.34
5,DCAF7 (UniProt P61962),-0.0305
6,PLK1 (UniProt P53350),0.275
7,STAT2 (UniProt P52630),-0.115
8,CAPZA1 (UniProt P52907),1.21
9,AGFG1 (UniProt P52594),-0.00611
10,HNRNPH2 (UniProt P55795),-0.243
11,TRA2B (UniProt P62995),-0.0469
12,VAV2 (UniProt P52735),-0.722
13,NUP98 (UniProt P52948),0.592
14,UniProt P52435,-0.839
15,AP1S1 (UniProt P61966),0.116
16,SKP1 (UniProt P63208),0.0472
17,UBA52 (UniProt P62987),-1.65
18,COPS2 (UniProt P61201),0.651
19,UniProt P54284,0.727

row,Target,melting temperature shift [°C]
1,NAP1L1 (UniProt P55209),0.287
2,IST1 (UniProt P53990),-0.879
3,RHOA (UniProt P61586),-3.45
4,RAC1 (UniProt P63000),0.61
5,YWHAZ (UniProt P63104),-0.898
6,UniProt P61018,-1.09
7,MYL6 (UniProt P60660),-0.208
8,UniProt P62304,0.773
9,UniProt P55058,1.02
10,PRKAG1 (UniProt P54619),0.311
11,ATN1 (UniProt P54259),0.892
12,MNAT1 (UniProt P51948),0.684
13,RPS20 (UniProt P60866),-0.623
14,RPS23 (UniProt P62266),1.15
15,PPP3R1 (UniProt P63098),-0.255
16,SMS (UniProt P52788),1.09
17,SMTN (UniProt P53814),-0.487
18,SUB1 (UniProt P53999),-0.214
